Drawing on the supplement of paper PMC10849652, this text covers log2 fold change for 32 targets.

Sequences of proteins named here, by UniProt entry; tags and fusion partners are left off. A change or cut given only in a name is not applied to a line headed by its entry.
UniProt Q8WTV0: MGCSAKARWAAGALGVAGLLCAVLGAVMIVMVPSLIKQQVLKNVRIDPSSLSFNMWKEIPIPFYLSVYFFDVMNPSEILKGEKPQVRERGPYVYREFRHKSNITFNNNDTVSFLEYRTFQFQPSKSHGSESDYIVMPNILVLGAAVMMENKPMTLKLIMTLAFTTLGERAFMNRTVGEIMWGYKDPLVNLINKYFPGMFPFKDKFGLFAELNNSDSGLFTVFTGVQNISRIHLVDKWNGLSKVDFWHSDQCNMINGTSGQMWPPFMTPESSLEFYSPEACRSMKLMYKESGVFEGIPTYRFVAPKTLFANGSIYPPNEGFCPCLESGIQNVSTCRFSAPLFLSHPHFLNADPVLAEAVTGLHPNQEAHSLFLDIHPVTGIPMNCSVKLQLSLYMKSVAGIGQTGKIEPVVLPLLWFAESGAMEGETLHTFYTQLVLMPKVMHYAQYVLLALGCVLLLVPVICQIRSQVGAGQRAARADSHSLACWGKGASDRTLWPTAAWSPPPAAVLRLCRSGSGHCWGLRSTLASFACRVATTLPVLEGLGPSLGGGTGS
UniProt Q9H446: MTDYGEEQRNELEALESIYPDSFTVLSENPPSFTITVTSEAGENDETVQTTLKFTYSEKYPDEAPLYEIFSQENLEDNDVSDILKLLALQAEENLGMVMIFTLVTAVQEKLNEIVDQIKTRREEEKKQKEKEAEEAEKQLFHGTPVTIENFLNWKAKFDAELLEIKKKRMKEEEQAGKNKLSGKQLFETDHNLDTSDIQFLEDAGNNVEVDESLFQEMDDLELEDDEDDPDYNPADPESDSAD
UniProt Q9Y3V2: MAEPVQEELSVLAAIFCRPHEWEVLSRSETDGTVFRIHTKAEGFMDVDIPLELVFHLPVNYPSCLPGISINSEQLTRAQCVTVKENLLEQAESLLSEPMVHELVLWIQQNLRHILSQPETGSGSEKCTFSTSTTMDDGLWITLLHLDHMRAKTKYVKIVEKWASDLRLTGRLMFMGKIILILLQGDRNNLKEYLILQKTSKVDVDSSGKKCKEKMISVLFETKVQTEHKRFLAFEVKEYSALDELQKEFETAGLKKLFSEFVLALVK
UniProt Q9Y265, whole entry, looked up: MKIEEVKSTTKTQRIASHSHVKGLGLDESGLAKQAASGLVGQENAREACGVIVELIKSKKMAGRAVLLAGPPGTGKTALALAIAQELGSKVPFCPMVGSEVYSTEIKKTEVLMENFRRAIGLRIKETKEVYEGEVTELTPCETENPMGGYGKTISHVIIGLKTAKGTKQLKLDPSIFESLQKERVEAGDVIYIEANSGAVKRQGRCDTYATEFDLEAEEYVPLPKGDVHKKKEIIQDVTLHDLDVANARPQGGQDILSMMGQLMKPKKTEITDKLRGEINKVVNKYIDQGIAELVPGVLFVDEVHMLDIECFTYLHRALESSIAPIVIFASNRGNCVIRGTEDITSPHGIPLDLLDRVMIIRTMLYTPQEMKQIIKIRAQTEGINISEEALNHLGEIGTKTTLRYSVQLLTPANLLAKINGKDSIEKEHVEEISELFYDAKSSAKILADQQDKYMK
UniProt Q9NRP4: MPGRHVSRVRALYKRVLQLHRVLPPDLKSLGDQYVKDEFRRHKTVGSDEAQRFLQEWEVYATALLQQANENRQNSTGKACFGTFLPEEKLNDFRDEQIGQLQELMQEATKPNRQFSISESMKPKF
UniProt Q96I15: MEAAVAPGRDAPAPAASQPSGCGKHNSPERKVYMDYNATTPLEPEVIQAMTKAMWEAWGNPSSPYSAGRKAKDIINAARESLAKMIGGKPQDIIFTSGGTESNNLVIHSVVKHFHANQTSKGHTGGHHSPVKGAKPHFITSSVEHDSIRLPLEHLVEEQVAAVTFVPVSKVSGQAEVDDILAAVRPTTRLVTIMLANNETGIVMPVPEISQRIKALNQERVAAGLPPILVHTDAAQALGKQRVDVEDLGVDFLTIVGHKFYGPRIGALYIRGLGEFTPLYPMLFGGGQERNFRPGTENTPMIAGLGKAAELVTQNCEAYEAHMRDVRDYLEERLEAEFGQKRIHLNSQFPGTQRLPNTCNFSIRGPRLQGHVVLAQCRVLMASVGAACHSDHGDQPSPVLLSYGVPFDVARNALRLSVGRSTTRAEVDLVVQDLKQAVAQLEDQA
UniProt Q969E2: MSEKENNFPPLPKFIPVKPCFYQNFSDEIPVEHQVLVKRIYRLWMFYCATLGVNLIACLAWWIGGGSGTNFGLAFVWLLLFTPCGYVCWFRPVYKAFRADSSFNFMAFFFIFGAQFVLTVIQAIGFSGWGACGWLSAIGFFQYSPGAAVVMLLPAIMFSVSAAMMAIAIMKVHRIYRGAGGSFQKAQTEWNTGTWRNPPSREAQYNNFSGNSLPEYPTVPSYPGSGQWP
UniProt Q14108: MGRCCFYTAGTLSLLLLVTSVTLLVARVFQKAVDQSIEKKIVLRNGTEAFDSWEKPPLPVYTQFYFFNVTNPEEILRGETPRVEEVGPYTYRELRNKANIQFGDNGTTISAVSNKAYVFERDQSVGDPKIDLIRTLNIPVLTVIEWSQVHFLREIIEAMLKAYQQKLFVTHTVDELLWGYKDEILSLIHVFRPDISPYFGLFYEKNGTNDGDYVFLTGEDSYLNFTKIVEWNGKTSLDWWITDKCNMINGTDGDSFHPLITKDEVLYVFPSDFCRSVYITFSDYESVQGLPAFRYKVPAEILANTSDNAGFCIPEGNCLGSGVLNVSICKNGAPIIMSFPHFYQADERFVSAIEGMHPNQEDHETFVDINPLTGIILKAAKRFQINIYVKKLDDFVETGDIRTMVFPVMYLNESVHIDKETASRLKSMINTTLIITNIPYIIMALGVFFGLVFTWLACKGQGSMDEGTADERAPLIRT
UniProt Q12770: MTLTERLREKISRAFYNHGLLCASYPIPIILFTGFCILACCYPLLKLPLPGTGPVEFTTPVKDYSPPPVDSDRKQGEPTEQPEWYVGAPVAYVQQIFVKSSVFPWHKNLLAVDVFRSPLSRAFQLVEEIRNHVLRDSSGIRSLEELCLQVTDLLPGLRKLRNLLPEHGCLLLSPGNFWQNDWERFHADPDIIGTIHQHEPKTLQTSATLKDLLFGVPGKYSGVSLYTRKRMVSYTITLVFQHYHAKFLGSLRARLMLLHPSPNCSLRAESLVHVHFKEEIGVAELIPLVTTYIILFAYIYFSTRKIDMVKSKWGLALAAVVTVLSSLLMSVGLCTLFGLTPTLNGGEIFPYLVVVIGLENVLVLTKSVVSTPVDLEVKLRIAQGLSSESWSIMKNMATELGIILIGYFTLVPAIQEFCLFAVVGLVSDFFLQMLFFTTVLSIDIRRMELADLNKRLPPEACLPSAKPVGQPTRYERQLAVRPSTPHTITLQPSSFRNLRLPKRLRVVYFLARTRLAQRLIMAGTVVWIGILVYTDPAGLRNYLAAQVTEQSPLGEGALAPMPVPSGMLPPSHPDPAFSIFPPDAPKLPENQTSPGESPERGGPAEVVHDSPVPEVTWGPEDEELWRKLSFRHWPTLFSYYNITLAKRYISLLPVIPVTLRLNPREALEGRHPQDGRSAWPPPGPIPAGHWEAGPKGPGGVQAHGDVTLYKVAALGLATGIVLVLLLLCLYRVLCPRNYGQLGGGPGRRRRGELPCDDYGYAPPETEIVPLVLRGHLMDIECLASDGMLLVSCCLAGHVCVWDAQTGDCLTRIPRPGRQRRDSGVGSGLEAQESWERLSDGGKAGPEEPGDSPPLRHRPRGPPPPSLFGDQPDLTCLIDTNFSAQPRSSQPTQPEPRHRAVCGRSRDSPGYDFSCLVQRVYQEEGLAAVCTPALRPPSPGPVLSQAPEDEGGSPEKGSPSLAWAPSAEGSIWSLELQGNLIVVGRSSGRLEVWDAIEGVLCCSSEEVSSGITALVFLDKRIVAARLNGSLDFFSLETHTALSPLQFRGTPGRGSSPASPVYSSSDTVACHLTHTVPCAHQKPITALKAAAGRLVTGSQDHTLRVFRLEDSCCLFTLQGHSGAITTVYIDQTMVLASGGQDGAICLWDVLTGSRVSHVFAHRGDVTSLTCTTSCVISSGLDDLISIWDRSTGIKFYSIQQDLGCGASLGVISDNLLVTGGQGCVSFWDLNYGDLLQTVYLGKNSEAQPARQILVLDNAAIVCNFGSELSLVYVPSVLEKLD
UniProt O94855: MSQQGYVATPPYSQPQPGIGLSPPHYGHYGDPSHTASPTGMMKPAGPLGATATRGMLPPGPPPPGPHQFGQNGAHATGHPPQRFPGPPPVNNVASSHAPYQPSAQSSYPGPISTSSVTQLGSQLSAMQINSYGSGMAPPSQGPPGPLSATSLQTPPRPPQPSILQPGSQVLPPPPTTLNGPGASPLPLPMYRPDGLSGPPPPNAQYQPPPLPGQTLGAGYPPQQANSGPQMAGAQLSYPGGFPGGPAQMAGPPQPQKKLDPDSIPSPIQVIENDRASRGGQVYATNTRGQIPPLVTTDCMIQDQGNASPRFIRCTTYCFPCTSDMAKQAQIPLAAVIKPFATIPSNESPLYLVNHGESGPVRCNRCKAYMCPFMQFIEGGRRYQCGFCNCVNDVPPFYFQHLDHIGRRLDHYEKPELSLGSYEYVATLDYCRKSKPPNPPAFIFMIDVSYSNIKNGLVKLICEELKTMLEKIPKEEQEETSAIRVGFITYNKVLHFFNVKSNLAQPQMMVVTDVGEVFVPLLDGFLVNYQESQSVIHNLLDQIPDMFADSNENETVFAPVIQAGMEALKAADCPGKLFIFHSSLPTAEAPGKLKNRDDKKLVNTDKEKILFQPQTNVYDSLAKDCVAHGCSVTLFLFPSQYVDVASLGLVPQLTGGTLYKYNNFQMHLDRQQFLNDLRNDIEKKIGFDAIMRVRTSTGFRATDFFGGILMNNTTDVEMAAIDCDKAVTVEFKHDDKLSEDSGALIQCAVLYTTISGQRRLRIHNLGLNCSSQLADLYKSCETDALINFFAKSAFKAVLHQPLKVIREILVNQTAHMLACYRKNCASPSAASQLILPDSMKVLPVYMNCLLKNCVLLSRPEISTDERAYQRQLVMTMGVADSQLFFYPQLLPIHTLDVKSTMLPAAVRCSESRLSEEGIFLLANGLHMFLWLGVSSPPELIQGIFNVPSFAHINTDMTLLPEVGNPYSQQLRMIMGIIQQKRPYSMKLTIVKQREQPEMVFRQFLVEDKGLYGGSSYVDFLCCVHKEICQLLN
UniProt Q9Y3B9: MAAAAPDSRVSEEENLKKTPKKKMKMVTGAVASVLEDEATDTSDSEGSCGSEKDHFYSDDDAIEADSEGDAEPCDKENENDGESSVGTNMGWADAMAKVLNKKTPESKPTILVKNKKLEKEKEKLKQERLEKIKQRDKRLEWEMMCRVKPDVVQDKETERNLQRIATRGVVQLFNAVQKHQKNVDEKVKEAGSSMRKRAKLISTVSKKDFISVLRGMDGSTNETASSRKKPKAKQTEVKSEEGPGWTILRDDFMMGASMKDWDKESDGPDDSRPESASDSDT
UniProt Q9BW04: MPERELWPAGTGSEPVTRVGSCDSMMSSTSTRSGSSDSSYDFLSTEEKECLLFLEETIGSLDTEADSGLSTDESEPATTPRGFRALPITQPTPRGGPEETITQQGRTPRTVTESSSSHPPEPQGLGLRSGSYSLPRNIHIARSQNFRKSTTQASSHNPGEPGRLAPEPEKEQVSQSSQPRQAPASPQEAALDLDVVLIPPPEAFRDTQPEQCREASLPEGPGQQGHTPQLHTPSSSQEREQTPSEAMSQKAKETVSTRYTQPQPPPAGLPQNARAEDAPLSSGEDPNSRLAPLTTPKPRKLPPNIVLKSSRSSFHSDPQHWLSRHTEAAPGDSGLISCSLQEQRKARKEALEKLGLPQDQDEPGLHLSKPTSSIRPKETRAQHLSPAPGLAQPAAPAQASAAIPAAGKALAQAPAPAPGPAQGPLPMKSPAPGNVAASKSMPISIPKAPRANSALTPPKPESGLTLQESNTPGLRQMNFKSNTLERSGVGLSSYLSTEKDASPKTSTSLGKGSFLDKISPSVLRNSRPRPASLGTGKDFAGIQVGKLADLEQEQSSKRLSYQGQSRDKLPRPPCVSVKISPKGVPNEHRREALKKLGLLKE
UniProt Q9NR31: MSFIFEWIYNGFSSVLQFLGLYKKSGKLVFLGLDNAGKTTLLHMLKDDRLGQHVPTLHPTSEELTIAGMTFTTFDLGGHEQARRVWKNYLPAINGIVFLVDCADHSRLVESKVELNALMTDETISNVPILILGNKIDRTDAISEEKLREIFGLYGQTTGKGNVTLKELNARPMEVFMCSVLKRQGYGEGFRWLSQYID
UniProt P31949: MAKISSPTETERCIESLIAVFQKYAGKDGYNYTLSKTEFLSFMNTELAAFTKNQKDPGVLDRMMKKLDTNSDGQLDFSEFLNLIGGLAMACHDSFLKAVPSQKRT
UniProt Q9UHR5: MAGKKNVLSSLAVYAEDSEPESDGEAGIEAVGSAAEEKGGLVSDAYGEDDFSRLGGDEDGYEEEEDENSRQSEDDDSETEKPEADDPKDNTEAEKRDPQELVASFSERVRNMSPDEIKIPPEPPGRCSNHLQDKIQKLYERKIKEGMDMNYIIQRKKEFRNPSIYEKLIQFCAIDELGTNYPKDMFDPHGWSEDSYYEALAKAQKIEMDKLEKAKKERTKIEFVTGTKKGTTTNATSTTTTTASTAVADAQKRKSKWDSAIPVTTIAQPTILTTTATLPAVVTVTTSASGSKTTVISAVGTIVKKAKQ

This is one part of the list.

Compound in the test: CS(=O)(=O)c1ccc(-c2cnc(N)c(C(=O)Nc3ccccc3)n2)cc1
As to the kind of experiment: log2 fold change, soluble protein after heating vs DMSO (PISA); higher = thermal stabilisation; K562 cells, 10 uM, 30 min; active = over 0.2 and 3.5 SD of the protein, either way, in both replicates (recomputed). Summed up:
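K562 cells at 2×10^6 cells/mL were exposed to 10 μM compound for 30 min, then aliquots were heated for 3 min across 48°C-58°C, pooled, and extracted in PBS containing 0.5% NP-40 at 4°C. The supernatant after 21,000xg for 90 min was taken as soluble protein and measured by TMTpro 16plex LC-MS/MS with channel sums equalised. Thermal stability is reported relative to control samples, with values from duplicates. Fold changes are given on a log2 scale.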
Take SCFD2 (UniProt Q8WU76): the log2 fold change is inactive: 0.034.
Turning to SCAF1 (UniProt Q9H7N4), the log2 fold change was inactive: 0.034.
The figure for SCARB1 isoform 2 (UniProt Q8WTV0) is inactive: 0.058; for RWDD1 (UniProt Q9H446) it is inactive: 0.05.
SCIN (UniProt Q9Y6U3): the log2 fold change is inactive: 0.133.
With SDF4 (UniProt Q9BRK5), the log2 fold change was inactive: -0.001.
The figure for RWDD3 (UniProt Q9Y3V2) is inactive: 0.076; for RYBP (UniProt Q8N488) it is inactive: 0.002.
Regarding SCO1 (UniProt O75880), the log2 fold change is inactive: 0.033.
As for SACS (UniProt Q9NZJ4), the log2 fold change was inactive: -0.041.
Consider RTRAF (UniProt Q9Y224), for which the log2 fold change is inactive: -0.026.
SCYL1 (UniProt Q96KG9): the log2 fold change was inactive: -0.005.
As for S100A6 (UniProt P06703), the log2 fold change was inactive: -0.078.
As to SDHA (UniProt P31040), the log2 fold change is inactive: -0.017.
With RSBN1L (UniProt Q6PCB5), the log2 fold change is inactive: -0.002.
For RUVBL1 (UniProt Q9Y265), the log2 fold change is inactive: 0.046.
As for SDHAF3 (UniProt Q9NRP4), the log2 fold change is inactive: -0.03.
As for SBNO1 (UniProt A3KN83), the figure is inactive: -0.003.
The figure for SCLY (UniProt Q96I15) is inactive: 0.022.
On to S100P (UniProt P25815), for which the log2 fold change was inactive: -0.048.
As for SCP2 (UniProt P22307), the figure is inactive: 0.033.
As for SCAMP4 (UniProt Q969E2), the log2 fold change is inactive: 0.03.
For SCARB2 (UniProt Q14108), the log2 fold change was inactive: 0.032.
As to SCAP (UniProt Q12770), the log2 fold change is inactive: -0.012.
On to SEC24D isoform 2 (UniProt O94855), for which the log2 fold change was inactive: -0.012.
The figure for RRP15 (UniProt Q9Y3B9) is inactive: -0.094; for SBF1 isoform 4 (UniProt O95248) it is inactive: -0.044; for SARG (UniProt Q9BW04) it is inactive: 0.063.
Turning to SAR1A (UniProt Q9NR31), the log2 fold change was inactive: 0.061.
Take S100A11 (UniProt P31949): the log2 fold change is inactive: 0.033.
For the target SAP30BP (UniProt Q9UHR5), the log2 fold change is inactive: -0.017.
Regarding SAR1B (UniProt Q9Y6B6), the log2 fold change was inactive: 0.078.
